Seven substances from publication PMC4848466 (Nature Communications, 2016) can be followed below.

*: point of attachment. FITC = O=C1OC2(c3ccc(O)cc3Oc3cc(O)ccc32)c2ccc(NC(=S)*)cc21; Ahx = NCCCCCC(=O)O

The nature of the data set: general procedure: Fmoc solid-phase peptide synthesis; 2-chlorotityl-N-Fmoc-hydroxylamine resin (0.69 mmol/g); Sieber amide resin; HCTU/N,N-diisopropylethylamine; HBTU/N,N-diisopropylethylamine. The conditions noted are these: whole synthesis; for final HPLC purity: analytical reverse-phase HPLC and LC-MS.

On to “FITC-Ahx-Ser-Glu-Arg-Gly-Lys(Ac)Gly-GLy-Lys-NH2”, for which the isolated yield worked out at 10% and the “final HPLC purity” value was 91% purity.
On to {FITC-Ahx}-KGGAK(Ac)RH-NH2, for which the isolated yield is on record as 33% and the “final HPLC purity” value is on record as greater than 99% purity.
Take Ac-Lys-Gly-Gly-Ala-Hao-Arg-His-NH2: the isolated yield came out at 1% and the “final HPLC purity” value worked out at 91% purity.
Taken in the same sequence, the figures for {FITC-Ahx}-TGGK(Ac)APR-NH2 were 16% and 98% purity.
Take “FITC-Ahx-Lys-Gly-Gly-Ala-Hao-Arg-His-NH2”: the isolated yield is reported as 20% and the “final HPLC purity” value was found to be 95% purity.
For the substance {FITC-Ahx}-KAARK(Ac)SA-NH2, the isolated yield amounted to 14% and the “final HPLC purity” value is reported as 98% purity.
Taken in the same sequence, the figures for {FITC-Ahx}-TARK(Ac)STG-NH2 were 17% and 98% purity.
